The values that follow come from article PMC7819943, “Rice protein-binding microarrays: a tool to detect cis-acting elements near promoter regions in rice”.

This is one part of the list.

In this assay the target is T1, OsSMF1 (Oryza sativa, UniProt Q6ZLB0 1-436).
T1 sequence: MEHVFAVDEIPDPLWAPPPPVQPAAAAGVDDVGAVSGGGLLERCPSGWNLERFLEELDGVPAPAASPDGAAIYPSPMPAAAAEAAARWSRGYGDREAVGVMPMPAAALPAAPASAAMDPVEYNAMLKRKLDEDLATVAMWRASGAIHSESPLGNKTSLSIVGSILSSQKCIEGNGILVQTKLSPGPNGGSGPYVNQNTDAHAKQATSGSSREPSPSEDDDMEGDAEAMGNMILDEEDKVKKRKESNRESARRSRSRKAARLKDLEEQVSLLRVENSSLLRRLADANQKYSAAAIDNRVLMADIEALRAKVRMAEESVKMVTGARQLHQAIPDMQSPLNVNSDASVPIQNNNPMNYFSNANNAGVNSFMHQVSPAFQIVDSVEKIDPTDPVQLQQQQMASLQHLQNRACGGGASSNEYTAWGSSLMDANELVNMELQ
The assay is described as follows: protein-binding microarray (RPBM); PBS, 2% BSA, 51.3 ng/ul salmon testes DNA, 50 uM zinc acetate, 200 nM TF, 25 C, 1 h; high values mean tight binding. Conditions: protein: recombinant; tags: N-terminal polyhistidine and DsRed monomer fusion (pET32a); chain copies: 2; label: CyDye5-dUTP incorporated in the synthesized complementary strand; 3' TTTTT single-stranded linker to array surface; dsDNA, one strand shown. The essentials: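 For the binding signal, per-feature fluorescence intensity was read in arbitrary units on an Axon 4000B scanner. Before scanning, a 2% BSA-blocked custom Agilent array made double-stranded with Cy5-dUTP was washed after 1 h at 25 °C with 200 nM protein and 50 µM zinc acetate. The proteins were Ni–NTA-purified transcription factors with N-terminal polyhistidine and DsRed fusions, expressed in E. coli BL21-CodonPlus.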
Turning to “GCGGGCTGGGCGGCCGCTCGGCGTGTCCACGTCGGATAGCCGGAGTCACCTAGTGCAG”, the binding signal was 12000 fluorescence intensity (a.u.).

As for “GCCGCGTGCAGCGGCGTGTCCACGTCCAGGAGCACCCTGTCGGAGTCACCTAGTGCAG”, the binding signal is 3430 fluorescence intensity (a.u.).

“GCGTGGAATGCGGATGATAGACGACGTACGCACGCGTGTGCGGAGTCACCTAGTGCAG”: the binding signal was 3760 fluorescence intensity (a.u.).

Turning to “GCATATATGCTTGCGTGCGCGCTTCATGCATGTCAATAACCGGAGTCACCTAGTGCAG”, the binding signal was 3270 fluorescence intensity (a.u.).

On to “TGAAGGCGGAGTAGGAGTTGTCCGCGACCACGCGCCTGAACGGAGTCACCTAGTGCAG”, for which the binding signal was 19700 fluorescence intensity (a.u.).

With “CATGACGAGGATTAGGATCCCTGAGCTGGTGAGGGAGGCGCGGAGTCACCTAGTGCAG”, the binding signal was 11500 fluorescence intensity (a.u.).

Take “CTTCACGTCGACGCCGTCGGGCGCGCCCTGGACGAACACCCGGAGTCACCTAGTGCAG”: the binding signal was 3310 fluorescence intensity (a.u.).

As for “TGCCGGCCTCCACGTCGCCCTCCGCCTCCCTCCCCGCATTCGGAGTCACCTAGTGCAG”, the binding signal is 7630 fluorescence intensity (a.u.).

In the case of “TTAAACTACAACCATATGTTCAGTCTTCAGTGGCTGTCAGCGGAGTCACCTAGTGCAG”, the binding signal is 3420 fluorescence intensity (a.u.).

Turning to “CAGTATGGTGACATAGCCGTGGATGACACGGCATTCGTATCGGAGTCACCTAGTGCAG”, the binding signal is 10400 fluorescence intensity (a.u.).

On to “TGGTTGATTTCTATCCCTCACTGAATTGTCGACTTCTTGCCGGAGTCACCTAGTGCAG”, for which the binding signal was 3840 fluorescence intensity (a.u.).

“GCGGAGGTCAAGCGCCACGTAGAAGGGTCGACGTGGGGAGCGGAGTCACCTAGTGCAG”: the binding signal was 7110 fluorescence intensity (a.u.).

“GGACCTTGATGTCAAGGTACTTCCTCCGTTCTAAAATATACGGAGTCACCTAGTGCAG”: the binding signal was 8540 fluorescence intensity (a.u.).

With “CTCCTCTGCGCTGCCGTTCCCCGTTATTCGCCAACGCTTCCGGAGTCACCTAGTGCAG”, the binding signal is 3390 fluorescence intensity (a.u.).

Turning to “CCAAACCATACAACGCACAATTAATTAGGGGAAACTGGACCGGAGTCACCTAGTGCAG”, the binding signal was 11100 fluorescence intensity (a.u.).

As for “ACTTGCAGAGTTGCAGTCGCGTGCGTCACGCGGCGAGGTGCGGAGTCACCTAGTGCAG”, the binding signal is 5960 fluorescence intensity (a.u.).

“ACTCTATGTGCTAATGTCATACCATCGTCAACACGATAGCCGGAGTCACCTAGTGCAG”: the binding signal is 3920 fluorescence intensity (a.u.).

On to “TGGATTGTTACATGTCTAAATTCATAATACCAGGATATATCGGAGTCACCTAGTGCAG”, for which the binding signal was 21600 fluorescence intensity (a.u.).

On to “CCACCGCGCAACGGATCGGCACCCGTTCCACGCGTCTACGCGGAGTCACCTAGTGCAG”, for which the binding signal is 4160 fluorescence intensity (a.u.).

As for “ACATGTCATAGACACATGTGGGTCCACATGTCATTGAGATCGGAGTCACCTAGTGCAG”, the binding signal was 5720 fluorescence intensity (a.u.).

As for “AACGGGGAGTAAATATTTTCCTAACAATAACGGAGACAAACGGAGTCACCTAGTGCAG”, the binding signal was 6780 fluorescence intensity (a.u.).

On to “GGCAACTAGAGACGCGACGGTTGGGCGTTACCAAGGAGCGCGGAGTCACCTAGTGCAG”, for which the binding signal was 4180 fluorescence intensity (a.u.).

As for “TGGATCAACCGCCTAATCATCGTTGAGTAAGGCACTGCAACGGAGTCACCTAGTGCAG”, the binding signal was 3980 fluorescence intensity (a.u.).

Turning to “CCTTGCTCCGTCCTGGTTTTCCTGTGCGCTGGATCATCCGCGGAGTCACCTAGTGCAG”, the binding signal is 3150 fluorescence intensity (a.u.).

As for “ACAACCTGGCCCCACACCCAAACCCGGGCCCACGTGTCATCGGAGTCACCTAGTGCAG”, the binding signal was 15500 fluorescence intensity (a.u.).

In the case of “GATTGGCAGCGCACTCGGTCAGCGAGTTACCGATCTTACACGGAGTCACCTAGTGCAG”, the binding signal is 6100 fluorescence intensity (a.u.).

“GAGGACATGCATGTGCAAGGGGAGCAGGTGGGGTAAAATGCGGAGTCACCTAGTGCAG”: the binding signal is 45500 fluorescence intensity (a.u.).

For the sequence “TTCTATACTACATTGAACTCCCCAAATTTAAGTATAGGCACGGAGTCACCTAGTGCAG”, the binding signal was 3160 fluorescence intensity (a.u.).

“AAAGAAAGCCCAAAGCAAGTAACTGCGCCATGACTAACACCGGAGTCACCTAGTGCAG”: the binding signal was 3540 fluorescence intensity (a.u.).

Take “ATTTCTGGTAGGACGGCCTGTGGCTTGCGTGTCTATGTGACGGAGTCACCTAGTGCAG”: the binding signal was 4600 fluorescence intensity (a.u.).

Turning to “TTAAATCAATAATTAAATATATTTTCATAATAAATTTGTGCGGAGTCACCTAGTGCAG”, the binding signal is 31000 fluorescence intensity (a.u.).

In the case of “TAACAAGCCTACCTACATGCATGCATCTATGCATATATATCGGAGTCACCTAGTGCAG”, the binding signal was 3540 fluorescence intensity (a.u.).

Turning to “ACTCCCCTCCCCGCCACGTCGCCATTCTTCCCGCTCCTGACGGAGTCACCTAGTGCAG”, the binding signal was 11800 fluorescence intensity (a.u.).

Consider “ATGTTTTAGTCACCATCTATATTATGTTAATGGAGTTTTCCGGAGTCACCTAGTGCAG”, for which the binding signal is 3340 fluorescence intensity (a.u.).

“GCCGTGCACGTTCTACGGCTCGCCACTTCAGACTCCATCTCGGAGTCACCTAGTGCAG”: the binding signal was 3200 fluorescence intensity (a.u.).

As for “TTTTAAGGAAAATATATTATCAGCACCATATAGCTGGATGCGGAGTCACCTAGTGCAG”, the binding signal was 4700 fluorescence intensity (a.u.).

For the sequence “TATTTGTGGACTGTTCCCAATGACATTTCTGGATGGCTTTCGGAGTCACCTAGTGCAG”, the binding signal was 3250 fluorescence intensity (a.u.).

Turning to “ATTATGTAGCATAGTGGCAGATCACTAATCTTTGTTGCTCCGGAGTCACCTAGTGCAG”, the binding signal was 3370 fluorescence intensity (a.u.).

Regarding “CAAAATACTCAAGCGGCGGCATTGTCATCTTCCTCCTCCCCGGAGTCACCTAGTGCAG”, the binding signal is 3550 fluorescence intensity (a.u.).

Regarding “GTAAGGCGTCCATGTGATGTCATTGTTGATGGGCAAGTGCCGGAGTCACCTAGTGCAG”, the binding signal was 6430 fluorescence intensity (a.u.).

As to “GTCGATTATTAAACTCTCCCTAATTGACCTTAGTGTTGTCCGGAGTCACCTAGTGCAG”, the binding signal is 16900 fluorescence intensity (a.u.).

Consider “CCGTGATTGAGGCCCATCCAAATGTCTCTGGGCCATCCGCCGGAGTCACCTAGTGCAG”, for which the binding signal was 17600 fluorescence intensity (a.u.).
